Laboratory results published in paper PMC12010950, “Discover the Power of Lithospermic Acid as Human Carbonic Anhydrase VA and Pancreatic Lipase Inhibitor Through In Silico and In Vitro Studies” (Archiv Der Pharmazie, 2025).

Molecular target: hCA VB
Test: Stopped-flow CO2 hydrase assay
Assay type: biochemical, human
Conditions: mean from 3 assays, read-out: K i hCA VB
Experimental: An Applied Photophysics stopped‐flow instrument was used to assay the CA‐catalyzed CO2 hydration activity. […] The uncatalyzed rates were determined in the same manner and subtracted from the total observed rates. Stock solutions of the inhibitor (0.1 mM) were prepared in distilled−deionized water, and dilutions up to 0.01 nM were done thereafter with the assay buffer. Inhibitor and enzyme solutions were preincubated together for 15 min at room temperature before the assay, to allow for the formation of the E − I complex. The inhibition constants were obtained by nonlinear least‐squares methods using PRISM 3 and the Cheng–Prusoff equation as reported earlier and represent the mean from at least three different determinations. All CA isoforms were recombinant proteins obtained in house, as reported earlier.

- Ki: 63 ± 2 nM
Structure (SMILES): CC(=O)Nc1nnc(S(N)(=O)=O)s1 [AAZ, acetazolamide, reference compound]
